The whole screen tested about 2,500 compounds, of which about 360 (14%) were called active.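 The calls were made as follows: active = signal-lowering compounds whose fitted half-maximal concentration AC50 is no higher than ten times their top tested concentration; inconclusive = flat curve with 30 to 70% inhibition, or poor fit; inactive = flat within 30%, signal increase, or AC50 above limit.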 Only a part is listed here, and it is no random draw.

This experiment in a line: HRP/luminol detection interference without ALR, dose response, artefact control for ALR inhibitor project, biochemical, luminescence, no ALR or DTT, cherry-pick (AID 540356). The conditions noted are these: HRP/H2O2 luminol luminescence counterscreen.
In the case of `Cc1ccc(S(=O)(=O)NNC(=O)c2ccc(O)cc2)cc1`, the AC50 was inactive: > 10 µM.
The same measure for `C/C(=C\c1ccc(N)cc1)c1nc2ccccc2[nH]1`: active: 6.64 µM; for `CC(=O)N1CCN(c2ccc(NCc3ccccc3)cc2)CC1`: active: 8.41 µM.
With `CCN(CCNC(=O)C1CCN(S(=O)(=O)CC)CC1)c1ccccc1` the figure was inactive: > 10 µM; with `O=C(N/N=C/c1c(O)n(Cc2ccccc2)c(=O)c2ccccc12)c1cccnc1`, inactive: > 10 µM.
With `CCN(CC)c1ccc(NC(=O)CCNC(=O)c2ccco2)cc1` the figure was inactive: > 10 µM; with `Nc1[nH]c(N=NC(=O)c2ccc(F)cc2)c2ccccc12`, inactive: > 10 µM; with `Cc1ccc(S(=O)(=O)N2[C@@H](c3ccc(Cl)cc3)C(C(=O)O)=CC[C@H]2c2ccc(Cl)c(Cl)c2)cc1`, inactive: > 10 µM.
Take `COc1cc(/C=N/NC(=O)CCN2CCCCC2)ccc1O`: the concentration at half-maximal activity (AC50) was active: 8.16 µM.
With `O=C(O)c1ccc2c(c1)C(=O)N(c1ccc(Nc3ccccc3)cc1)C2=O` the figure was inactive: > 10 µM; with `Cc1cc(C)c2c(-n3cccc3)c(C(=O)NNS(=O)(=O)c3ccc(Br)cc3)sc2n1`, inactive: > 10 µM; with `Cc1cc(C)c(S(=O)(=O)Nc2ccc(N(C)C)cc2)c(C)c1-n1cnnn1`, inactive: > 10 µM.
Regarding `CCN(CC)c1ccc(NC(=O)c2ccc(Br)o2)cc1`, the AC50 is inactive: > 10 µM.
The same measure for `O=C(NN=C1CCC(=NNC(=O)c2cccnc2)CC1)c1cccnc1`: active: 8.24 µM; for `O=C(CCN1C(=O)/C(=C/c2ccccc2Cl)SC1=S)Nc1ccccc1C(=O)O`: inactive: > 10 µM; for `COc1cc(C(=O)Nc2ccc(N(C)C)cc2)cc(OC)c1OC`: inactive: > 10 µM.
With `Oc1cc(O)cc(/C=C/c2ccc(O)c(O)c2)c1` the figure was active: 5.21 µM; with `NNC(=O)CCc1nc2ccc(O)cc2[nH]1`, active: 10.3 µM.
